{"source": "PubChem BioAssay AID652259 (Drosophila RNAi Screening Center, 2013)", "purpose": "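Identify new Wingless signalling regulators in fly cells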 (primary screen)", "cell system": "Drosophila clone 8 imaginal disc epithelial cells", "reagents": "long dsRNA against Drosophila genes", "conditions": "pathway stimulated by co-transfected Wingless expression plasmid", "measured": "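Firefly luciferase from a tcf-site Wingless reporter, measured alongside co-transfected Renilla luciferase that tracks transfection; pathway stimulated by a Wingless plasmid; the firefly-to-Renilla ratio is not deposited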", "scale": "firefly reporter light: higher = more Wg reporter light, before normalisation; Renilla control light: higher = more transfected or surviving cells", "active means": "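a knock-down is a candidate when at least two out of four statistical tests show it departing from its plate mean; one test alone signals a weak candidate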", "meaning of the calls": "active = candidate regulator (raises or lowers reporter); inactive = not a candidate", "note": "The deposit covers about 22,000 reagents; this is a random part of those with a known target gene and a result. Over the whole deposit, 233 (1.1%) are marked active. 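Light values are raw, unnormalised plate reads; the ratio scores behind the reporter calls were not deposited.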 Entries without a mark were called inactive. A plus sign joins genes that one reagent is predicted to hit. Not given: the amount of reagent, the time to read-out, the dose of the treatment."}
{"target":"CG15773","amplicon":"DRSC18079","firefly reporter light, replicate 1":23161,"Renilla control light, replicate 1":8594}
{"target":"Sf3b6","amplicon":"DRSC09972","firefly reporter light, replicate 1":1862,"firefly reporter light, replicate 2":12668,"Renilla control light, replicate 1":861,"Renilla control light, replicate 2":3046}
{"target":"Rab9Db + Rab9Fa","amplicon":"DRSC18445","firefly reporter light, replicate 1":13296,"Renilla control light, replicate 1":8408}
{"target":"GstO3","amplicon":"DRSC10710","firefly reporter light, replicate 1":1185,"firefly reporter light, replicate 2":5948,"Renilla control light, replicate 1":925,"Renilla control light, replicate 2":2517}
{"target":"CG5687","amplicon":"DRSC08568","firefly reporter light, replicate 1":12394,"Renilla control light, replicate 1":4413}
{"target":"BCAS2","amplicon":"DRSC15693","firefly reporter light, replicate 1":3840,"firefly reporter light, replicate 2":8624,"Renilla control light, replicate 1":1064,"Renilla control light, replicate 2":1877}
{"target":"yata","amplicon":"DRSC15408","firefly reporter light, replicate 1":8897,"Renilla control light, replicate 1":3229}
{"target":"et","amplicon":"DRSC19582","firefly reporter light, replicate 1":21322,"Renilla control light, replicate 1":9659}
{"target":"CG6951","amplicon":"DRSC10755","firefly reporter light, replicate 1":8426,"Renilla control light, replicate 1":2171}
{"target":"CG14459","amplicon":"DRSC11719","reporter change call, replicate 1":"Wg reporter activity raised (active)","firefly reporter light, replicate 1":14304,"Renilla control light, replicate 1":1349}

The list goes on, starting with the last 2 of the part before.
{"target":"CG6951","amplicon":"DRSC10755","firefly reporter light, replicate 1":8426,"Renilla control light, replicate 1":2171}
{"target":"CG14459","amplicon":"DRSC11719","reporter change call, replicate 1":"Wg reporter activity raised (active)","firefly reporter light, replicate 1":14304,"Renilla control light, replicate 1":1349}
{"target":"kni","amplicon":"DRSC11891","firefly reporter light, replicate 1":14370,"Renilla control light, replicate 1":4633}
{"target":"CG1317","amplicon":"DRSC08305","firefly reporter light, replicate 1":16875,"Renilla control light, replicate 1":4007}
{"target":"CG17786","amplicon":"DRSC15270","firefly reporter light, replicate 1":16246,"Renilla control light, replicate 1":12977}
{"target":"CG3081","amplicon":"DRSC18571","firefly reporter light, replicate 1":15312,"Renilla control light, replicate 1":8052}
{"target":"CG14277","amplicon":"DRSC02380","firefly reporter light, replicate 1":2272,"firefly reporter light, replicate 2":6227,"Renilla control light, replicate 1":1052,"Renilla control light, replicate 2":3296}
{"target":"fidipidine","amplicon":"DRSC07618","firefly reporter light, replicate 1":8672,"Renilla control light, replicate 1":3254}
{"target":"CG11920","amplicon":"DRSC14439","firefly reporter light, replicate 1":2832,"firefly reporter light, replicate 2":4035,"Renilla control light, replicate 1":1418,"Renilla control light, replicate 2":1675}
